According to paper PMC5886296:
Where two headings read alike, the source gives them in different places. No constants are given. Whether binding was seen depends on the method and setting. Binding seen in cells or lysates may run through a third protein. Some results given as binding are weak or reduced against the parent protein; the word gives no strength. For part of these data: Sequences can lack the tags named with a protein. Values belong to the molecule of their own block, whether it stands above or below them.

Chains of the proteins cited; added tags and fusions are not shown.
UniProt Q9Y265: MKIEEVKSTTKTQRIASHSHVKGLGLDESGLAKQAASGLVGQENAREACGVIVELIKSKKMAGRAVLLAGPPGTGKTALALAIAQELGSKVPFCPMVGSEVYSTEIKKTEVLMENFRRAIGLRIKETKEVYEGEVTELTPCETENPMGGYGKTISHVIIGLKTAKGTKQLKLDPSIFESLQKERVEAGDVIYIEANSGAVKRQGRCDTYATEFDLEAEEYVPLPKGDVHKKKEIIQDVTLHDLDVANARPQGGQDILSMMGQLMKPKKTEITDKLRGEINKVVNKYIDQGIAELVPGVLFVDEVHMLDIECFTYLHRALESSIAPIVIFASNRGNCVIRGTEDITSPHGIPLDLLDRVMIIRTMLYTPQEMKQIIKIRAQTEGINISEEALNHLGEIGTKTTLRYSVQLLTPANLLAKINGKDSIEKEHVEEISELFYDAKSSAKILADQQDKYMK

Tests used:
[1] = molecular target: T1, SF-TAP-DNAAF1 wild-type (p.Leu191) (human) (UniProt Q8NEP3); assay: co-IP; HEK293 cells over-expressing FLAG (SF-TAP)-DNAAF1, with or without IFT88-eYFP; precipitation with anti-FLAG, western blot with anti-GFP or anti-RUVBL1; 50 mM Tris pH 8.0, 150 mM NaCl, 0.5 mM EDTA, 4 °C
T1 sequence: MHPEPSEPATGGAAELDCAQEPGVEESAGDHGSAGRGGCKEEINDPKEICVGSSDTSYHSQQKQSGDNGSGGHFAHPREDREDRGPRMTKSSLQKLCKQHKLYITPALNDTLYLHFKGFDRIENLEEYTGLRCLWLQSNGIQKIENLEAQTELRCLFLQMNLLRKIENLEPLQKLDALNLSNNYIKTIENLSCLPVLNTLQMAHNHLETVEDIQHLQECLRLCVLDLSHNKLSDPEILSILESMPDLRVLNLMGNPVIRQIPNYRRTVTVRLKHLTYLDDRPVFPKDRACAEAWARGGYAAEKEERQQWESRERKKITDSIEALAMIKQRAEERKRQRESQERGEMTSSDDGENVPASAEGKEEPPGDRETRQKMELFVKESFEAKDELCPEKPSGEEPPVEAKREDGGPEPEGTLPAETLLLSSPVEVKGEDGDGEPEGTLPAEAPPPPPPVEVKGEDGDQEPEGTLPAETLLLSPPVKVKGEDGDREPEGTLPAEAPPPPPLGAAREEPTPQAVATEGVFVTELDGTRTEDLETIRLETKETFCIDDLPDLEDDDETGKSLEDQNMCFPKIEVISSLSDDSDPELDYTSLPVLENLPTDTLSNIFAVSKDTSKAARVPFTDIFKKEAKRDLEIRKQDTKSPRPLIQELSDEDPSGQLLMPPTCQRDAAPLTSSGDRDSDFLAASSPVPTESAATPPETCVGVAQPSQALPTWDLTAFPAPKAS

[2] = molecular target: T1, SF-TAP-DNAAF1 wild-type (p.Leu191) (human); assay: as above; remark: listed apart in the source
[3] = molecular target: T2, endogenous IFT88 (human (endogenous in HEK293)) (UniProt Q13099); assay: co-IP; HEK293 cells over-expressing FLAG (SF-TAP)-DNAAF1; endogenous IFT88 precipitated with anti-IFT88, western blot with anti-FLAG; 50 mM Tris pH 8.0, 150 mM NaCl, 0.5 mM EDTA, 4 °C
T2 sequence: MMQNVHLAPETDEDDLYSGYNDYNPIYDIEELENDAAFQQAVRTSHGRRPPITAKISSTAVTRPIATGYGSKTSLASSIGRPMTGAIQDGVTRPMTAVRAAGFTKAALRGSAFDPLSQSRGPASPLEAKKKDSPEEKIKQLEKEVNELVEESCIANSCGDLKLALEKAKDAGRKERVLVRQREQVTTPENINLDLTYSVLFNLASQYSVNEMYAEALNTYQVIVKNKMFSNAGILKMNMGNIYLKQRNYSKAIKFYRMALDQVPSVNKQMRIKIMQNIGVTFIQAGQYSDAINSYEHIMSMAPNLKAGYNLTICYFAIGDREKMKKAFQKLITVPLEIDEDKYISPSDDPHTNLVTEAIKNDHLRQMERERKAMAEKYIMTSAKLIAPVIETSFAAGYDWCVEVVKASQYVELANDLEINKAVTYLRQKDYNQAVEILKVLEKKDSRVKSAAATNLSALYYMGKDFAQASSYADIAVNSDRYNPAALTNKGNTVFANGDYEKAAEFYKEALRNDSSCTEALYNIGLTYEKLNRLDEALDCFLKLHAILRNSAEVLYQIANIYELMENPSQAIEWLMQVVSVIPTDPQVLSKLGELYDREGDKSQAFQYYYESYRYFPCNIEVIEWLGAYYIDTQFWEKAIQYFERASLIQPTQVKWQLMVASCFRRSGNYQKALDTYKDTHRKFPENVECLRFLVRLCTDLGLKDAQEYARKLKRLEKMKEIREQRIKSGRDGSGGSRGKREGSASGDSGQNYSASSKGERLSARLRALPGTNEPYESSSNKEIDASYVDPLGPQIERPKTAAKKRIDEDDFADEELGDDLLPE

- binding [1]: binds
Molecule: RUVBL1 (from UniProt Q9Y265 1-456)

- binding [2]: binds
B1: IFT88-eYFP (protein, UniProt Q13099 1-824)
chain: MMQNVHLAPETDEDDLYSGYNDYNPIYDIEELENDAAFQQAVRTSHGRRPPITAKISSTAVTRPIATGYGSKTSLASSIGRPMTGAIQDGVTRPMTAVRAAGFTKAALRGSAFDPLSQSRGPASPLEAKKKDSPEEKIKQLEKEVNELVEESCIANSCGDLKLALEKAKDAGRKERVLVRQREQVTTPENINLDLTYSVLFNLASQYSVNEMYAEALNTYQVIVKNKMFSNAGILKMNMGNIYLKQRNYSKAIKFYRMALDQVPSVNKQMRIKIMQNIGVTFIQAGQYSDAINSYEHIMSMAPNLKAGYNLTICYFAIGDREKMKKAFQKLITVPLEIDEDKYISPSDDPHTNLVTEAIKNDHLRQMERERKAMAEKYIMTSAKLIAPVIETSFAAGYDWCVEVVKASQYVELANDLEINKAVTYLRQKDYNQAVEILKVLEKKDSRVKSAAATNLSALYYMGKDFAQASSYADIAVNSDRYNPAALTNKGNTVFANGDYEKAAEFYKEALRNDSSCTEALYNIGLTYEKLNRLDEALDCFLKLHAILRNSAEVLYQIANIYELMENPSQAIEWLMQVVSVIPTDPQVLSKLGELYDREGDKSQAFQYYYESYRYFPCNIEVIEWLGAYYIDTQFWEKAIQYFERASLIQPTQVKWQLMVASCFRRSGNYQKALDTYKDTHRKFPENVECLRFLVRLCTDLGLKDAQEYARKLKRLEKMKEIREQRIKSGRDGSGGSRGKREGSASGDSGQNYSASSKGERLSARLRALPGTNEPYESSSNKEIDASYVDPLGPQIERPKTAAKKRIDEDDFADEELGDDLLPE

- binding [3]: binds
B2: SF-TAP-DNAAF1 wild-type (p.Leu191) (protein, UniProt Q8NEP3-1 1-725)
chain: MHPEPSEPATGGAAELDCAQEPGVEESAGDHGSAGRGGCKEEINDPKEICVGSSDTSYHSQQKQSGDNGSGGHFAHPREDREDRGPRMTKSSLQKLCKQHKLYITPALNDTLYLHFKGFDRIENLEEYTGLRCLWLQSNGIQKIENLEAQTELRCLFLQMNLLRKIENLEPLQKLDALNLSNNYIKTIENLSCLPVLNTLQMAHNHLETVEDIQHLQECLRLCVLDLSHNKLSDPEILSILESMPDLRVLNLMGNPVIRQIPNYRRTVTVRLKHLTYLDDRPVFPKDRACAEAWARGGYAAEKEERQQWESRERKKITDSIEALAMIKQRAEERKRQRESQERGEMTSSDDGENVPASAEGKEEPPGDRETRQKMELFVKESFEAKDELCPEKPSGEEPPVEAKREDGGPEPEGTLPAETLLLSSPVEVKGEDGDGEPEGTLPAEAPPPPPPVEVKGEDGDQEPEGTLPAETLLLSPPVKVKGEDGDREPEGTLPAEAPPPPPLGAAREEPTPQAVATEGVFVTELDGTRTEDLETIRLETKETFCIDDLPDLEDDDETGKSLEDQNMCFPKIEVISSLSDDSDPELDYTSLPVLENLPTDTLSNIFAVSKDTSKAARVPFTDIFKKEAKRDLEIRKQDTKSPRPLIQELSDEDPSGQLLMPPTCQRDAAPLTSSGDRDSDFLAASSPVPTESAATPPETCVGVAQPSQALPTWDLTAFPAPKAS
